The values below come from publication PMC10801253.

Chains of the proteins cited; added tags and fusions are not shown.
UniProt P40337: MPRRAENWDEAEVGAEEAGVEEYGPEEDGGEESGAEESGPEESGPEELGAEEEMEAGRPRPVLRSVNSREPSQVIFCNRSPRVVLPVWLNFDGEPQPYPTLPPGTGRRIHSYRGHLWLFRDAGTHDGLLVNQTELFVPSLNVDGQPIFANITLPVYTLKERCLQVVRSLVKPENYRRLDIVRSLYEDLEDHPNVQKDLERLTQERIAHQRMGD

No constants are given. Whether binding was seen depends on the method and setting. Binding seen in cells or lysates may run through a third protein. Some results given as binding are weak or reduced against the parent protein; the word gives no strength.

The target in the assay is T1, FOXA2 (human (endogenous in ACHN and Caki-1)) (UniProt Q9Y261).
T1 sequence: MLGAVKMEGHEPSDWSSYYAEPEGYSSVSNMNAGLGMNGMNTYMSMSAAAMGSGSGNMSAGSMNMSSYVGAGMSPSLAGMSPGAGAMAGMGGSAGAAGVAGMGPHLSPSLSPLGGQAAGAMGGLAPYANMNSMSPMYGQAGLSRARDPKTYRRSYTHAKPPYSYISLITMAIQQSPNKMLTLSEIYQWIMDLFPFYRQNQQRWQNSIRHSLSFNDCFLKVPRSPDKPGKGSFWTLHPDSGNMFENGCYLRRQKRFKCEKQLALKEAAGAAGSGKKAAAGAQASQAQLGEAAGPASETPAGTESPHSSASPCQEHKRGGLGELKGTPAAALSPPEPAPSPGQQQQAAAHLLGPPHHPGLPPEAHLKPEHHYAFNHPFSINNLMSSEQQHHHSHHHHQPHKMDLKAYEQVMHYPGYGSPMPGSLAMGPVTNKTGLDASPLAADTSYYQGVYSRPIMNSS
Briefly: co-IP; endogenous proteins in ACHN and Caki-1 lysates; anti-FOXA2 antibody or rabbit IgG for 4 h, then protein A/G beads for 2 h; washed three times with NETN (250 mM NaCl, 5 mM EDTA, 50 mM Tris-HCl, 0.5% NP-40); immunoblot. (A western blot detects proteins with antibodies after separation by electrophoresis.)

As for “VHL (von Hippel-Lindau) (from UniProt P40337 1-213)”, the binding result is given as “binds”.
